Test results from PubChem BioAssay AID528 (NMMLSC, 2006).
Out of some 24,000 compounds screened, fewer than 10 were called active. Inconclusive results, whose numbers are uncertain, are shown with a selection of clear calls.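 How the source made its calls: active means fluorescent ligand binding to cells raised by more than 40% of the manganese-induced maximum; inconclusive means compound's own fluorescence above 85% of the ligand control signal; inactive means the rest.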

Amino acid sequences for entries named in this document (tags omitted).
UniProt P13612, whole entry, looked up: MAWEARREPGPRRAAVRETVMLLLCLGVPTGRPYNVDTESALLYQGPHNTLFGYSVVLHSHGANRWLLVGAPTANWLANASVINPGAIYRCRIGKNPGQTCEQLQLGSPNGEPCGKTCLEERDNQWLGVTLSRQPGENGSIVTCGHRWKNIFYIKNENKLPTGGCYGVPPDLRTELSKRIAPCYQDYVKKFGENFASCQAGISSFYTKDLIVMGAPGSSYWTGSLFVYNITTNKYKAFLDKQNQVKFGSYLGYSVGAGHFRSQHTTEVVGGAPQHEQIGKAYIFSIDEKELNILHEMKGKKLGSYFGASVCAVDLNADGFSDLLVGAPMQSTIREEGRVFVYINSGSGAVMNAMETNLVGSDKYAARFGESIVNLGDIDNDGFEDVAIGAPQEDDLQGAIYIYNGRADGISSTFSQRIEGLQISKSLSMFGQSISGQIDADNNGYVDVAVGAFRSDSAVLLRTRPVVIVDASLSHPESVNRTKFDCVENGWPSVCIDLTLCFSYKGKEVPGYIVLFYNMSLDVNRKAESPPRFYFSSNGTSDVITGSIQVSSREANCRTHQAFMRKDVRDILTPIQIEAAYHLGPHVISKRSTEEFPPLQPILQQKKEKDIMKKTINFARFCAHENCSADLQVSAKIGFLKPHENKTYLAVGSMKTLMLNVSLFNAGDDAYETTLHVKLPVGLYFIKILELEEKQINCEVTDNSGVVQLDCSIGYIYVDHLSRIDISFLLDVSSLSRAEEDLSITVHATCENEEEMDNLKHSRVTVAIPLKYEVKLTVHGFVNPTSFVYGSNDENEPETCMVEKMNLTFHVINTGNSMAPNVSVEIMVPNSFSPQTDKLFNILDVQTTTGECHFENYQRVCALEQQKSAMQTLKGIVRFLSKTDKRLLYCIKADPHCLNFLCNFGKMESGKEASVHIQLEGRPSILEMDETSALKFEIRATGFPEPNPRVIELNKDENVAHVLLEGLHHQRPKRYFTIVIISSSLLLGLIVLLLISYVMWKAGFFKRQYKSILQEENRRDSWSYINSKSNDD

biological target: Integrin alpha-4 (Homo sapiens) (UniProt P13612); assay: enhancers of LDV-FITC binding to VLA-4 integrin, primary screen, Jurkat cells, flow cytometry (AID 528); conditions: stronger effect = higher value, screened at 10 µM (by protocol);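 on activation: 0% = ligand binding without compound and 100% = manganese-stimulated maximal binding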

SMILES | activation
Cc1ccc(-n2c(C)nc3c(cnn3-c3ccc(F)cc3)c2=O)cc1C | inconclusive
COc1ccc(N2CSC3=C(C#N)C(c4cc(OC)c(OC)cc4OC)CC(=O)N3C2)c(OC)c1 (stereo unspecified) | inconclusive
O=C1CSC(c2ccccn2)N1c1ccccc1 (stereo unspecified) | inconclusive
c1ccc2c(c1)nc(-c1ccncc1)n1nnnc21 | inactive: 3.5%
NC(=O)CSc1nnc(Cn2c(=O)sc3ccccc32)n1-c1ccccc1 | inconclusive
CCOC(=O)c1cnn(-c2cc(C)c3cc(C)cc(C)c3n2)c1N | inactive: 3%
CC(=O)Nc1cc2ccc(OC(C)=O)cc2oc1=O | inconclusive
COc1ccccc1NC(=O)CN1CCN(c2ccc(Cl)cc2)CC1 | inconclusive
CC(C)C[C@H]1C(=O)N2CCC[C@H]2[C@]2(O)O[C@](NC(=O)[C@@H]3C=C4c5cccc6[nH]c(Br)c(c56)CC4N(C)C3)(C(C)C)C(=O)N12 (stereo partly specified) | inconclusive
Cc1nc2ccc(S(=O)(=O)NCC(=O)N3CCc4ccccc43)cc2s1 | inactive: 2%
CCOC(=O)CCc1c(C)nc2c(c(C)nn2C(C)(C)C)c1C | inconclusive
Nc1nonc1-c1nc2ccccc2n1Cc1ccc(F)cc1Cl | inconclusive
COc1cc2nc(NCCN3CCOCC3)n3nc(-c4ccccc4)nc3c2cc1OC | inconclusive
O=c1c2cc(N3CCOCC3)ccc2[nH]c(=S)n1CCCN1CCN(c2ccccc2F)CC1 | inactive: -4%
CC(=O)NCCn1c(SCC(=O)NCCC2=CCCCC2)nc2ccccc2c1=O | inconclusive
COc1ccc2cc3cc(C(=O)NCC4COc5ccccc5O4)oc3nc2c1 (stereo unspecified) | inconclusive
CC(=O)Nc1ccccc1O | inactive: 0.5%
CCCCN(C)C(=O)c1cn(CC)c2ccc(S(=O)(=O)N(C)C)cc2c1=O | inconclusive
COc1cc2c(cc1OC)C(C(=O)O)C(c1ccc(C)o1)N(C)C2=O (stereo unspecified) | inconclusive
Cc1ccc2nc(-c3ccccn3)cc(C(=O)N3CCN(c4ncccn4)CC3)c2c1 | inconclusive
Cc1ccsc1C1C=C(c2cccc(Br)c2)Nc2ncnn21 (stereo unspecified) | inconclusive
CCOC(=O)N1CCN(c2c(NCCc3ccc(OC)c(OC)c3)c(=O)c2=O)CC1 | inconclusive
COc1cccc(-c2nc(CS(=O)(=O)CC(=O)NCCCN3CCc4ccccc4C3)c(C)o2)c1 | inactive: 1%
CCOC(=O)N1CCC(NS(=O)(=O)c2cc(Br)cc3c2N(C(=O)CC)CC3)CC1 | inactive: -2%

Look-ups from the results shown:
activation with COc1cc2c(cc1OC)C(C(=O)O)C(c1ccc(C)o1)N(C)C2=O (stereo unspecified) is entered as inconclusive
activation with COc1ccc(N2CSC3=C(C#N)C(c4cc(OC)c(OC)cc4OC)CC(=O)N3C2)c(OC)c1 (stereo unspecified) is entered as inconclusive
activation with CC(=O)Nc1ccccc1O is entered as inactive: 0.5%

The list continues.

SMILES | activation
CCc1ccccc1NC(=O)c1cc(C2CC2)on1 | inactive: 2%
Cc1oc(-c2ccc(Cl)cc2)nc1CN1CCCC(C(=O)N2CCc3ccccc32)C1 (stereo unspecified) | inactive: -10%
O=C(NCC1CCCO1)c1sc(=S)n2c1[nH]c(=O)c1ccc(C(=O)N3CCCCC3)cc12 (stereo unspecified) | inactive: -1%
COc1ccc(NC(=O)CC(NCCc2ccccc2)C(=O)O)c(OC)c1 (stereo unspecified) | inconclusive
CCOC(=O)C1CCN(S(=O)(=O)c2cnc[nH]2)CC1 | inconclusive
CC1(C)CC(=O)C2=C(C1)N(CCN1CCOCC1)C1=C(C(=O)CC(C)(C)C1)C2c1cccc(Cl)c1 | inconclusive
Cc1ccc(C)c(Cc2c(C)nc3c(C(=O)N4CCOCC4)cnn3c2C)c1 | inconclusive
CC1=C(C(N)=O)C(c2cccnc2)n2nc(-c3cccc(C)c3)nc2N1 (stereo unspecified) | inconclusive
Cn1c2ccccc2c2cnn(CC(=O)N3CCN(c4ncccn4)CC3)c(=O)c21 | inactive: -9%
COc1ccc(OC)c(C2CC(=O)N3CN(c4cccc(Cl)c4C)CSC3=C2C#N)c1 (stereo unspecified) | inconclusive
Cc1ccc2nc(NC(=O)C3CCN(S(=O)(=O)c4cccc5nsnc45)CC3)sc2c1 | inactive: -10.7%
CC(=O)N1CCc2cc(S(=O)(=O)Nc3cccc(C(F)(F)F)c3)ccc21 | inconclusive
Fc1ccc2nc(Nc3nc4c(s3)CCCC4)sc2c1 | inconclusive
CCOC(=O)C1CCCN(C(=O)c2cc3c(=O)n4cccc(C)c4nc3n2C)C1 (stereo unspecified) | inactive: 6%
COc1ccccc1N1CCN(C(CNS(=O)(=O)c2ccc(C)cc2)c2cccnc2)CC1 (stereo unspecified) | inconclusive
CCOC(=O)C1CCCN(c2nc3ccccc3nc2C(C#N)C(=O)NCc2ccccc2)C1 (stereo unspecified) | inconclusive
Cc1onc(-c2ccccc2Cl)c1C(=O)N1CCN=C1SCc1cccnc1 | inconclusive
CCCCn1nnc(NC(=O)c2cc3ccccc3o2)n1 | inconclusive
Cc1oc(-c2ccccc2F)nc1CS(=O)CC(=O)NCc1cccs1 (stereo unspecified) | inconclusive
COc1ccc(C2=CC(c3sccc3C)n3nnnc3N2)cc1 (stereo unspecified) | inconclusive
Cc1ccc(C)n1CCN1CCN(CC(=O)Nc2ccc(S(N)(=O)=O)cc2)CC1 | inconclusive
CC1=C(C(N)=O)C(c2ccc3c(c2)OCO3)n2nc(-c3cccc(C)c3)nc2N1 (stereo unspecified) | inconclusive
COC(=O)C1C(=O)C2=C(CC1C)NC(=O)CC2c1ccc(O)c(OC)c1 (stereo unspecified) | inconclusive
CCOC(=O)C1=C(C)N=C2SC(CC)C(=O)N2C1c1ccc(OC(C)=O)c(OCC)c1 (stereo unspecified) | inactive: -1%

SMILES | activation
Cc1c(C(=O)N2CC(C)OC(C)C2)sc2nc(-c3ccccc3)cn12 (stereo unspecified) | inconclusive
CCOC(=O)c1sc(Nc2nc3c(OC)cccc3s2)nc1C | inconclusive
CC(C)CC(NC(=O)C1CCC(C)CC1)C(=O)N1CCN(c2ccccn2)CC1 (stereo unspecified) | inconclusive
CC(=O)N(CC1CCCO1)C1(C(=O)NC2CCCC2)CCCCC1 (stereo unspecified) | inactive: 0%
CCOC(=O)C1CCCN(C(=O)Cn2ncc3c(=O)oc4ccc(C)cc4c32)C1 (stereo unspecified) | inconclusive
O=C(Nc1cccc2nsnc12)c1ccc2c(c1)OCCO2 | inconclusive
COc1cccc(-n2c(Cc3cc(=O)[nH]c(=O)[nH]3)nnc2SCC(=O)Nc2ccccc2)c1 | inactive: 5%
CCn1cc(C(=O)NCc2ccc(Cl)cc2)c(=O)c2cc(S(=O)(=O)N3CCOCC3)ccc21 | inconclusive
O=C(Nc1cccc(O)c1)c1ccccc1 | inconclusive
CCOC(=O)C1CCN(S(=O)(=O)c2ccc(NC(=O)OC)cc2)CC1 | inconclusive
O=C1C(C=Nc2ccccc2O)=C(O)c2ccccc21 | inconclusive
Cc1c(C(=O)N2CCCCC2)oc2ccc(S(=O)(=O)N3CC(C)CC(C)C3)cc12 (stereo unspecified) | inconclusive
Nc1nnc(N2CCc3ccccc32)s1 | inconclusive
Cc1ccc(CCNC(=O)c2nnn(-c3cccc(C)c3)c2N)cc1 | inconclusive
CCCOc1ccc(C2c3c(oc4ccccc4c3=O)C(=O)N2CCCN2CCOCC2)cc1 (stereo unspecified) | inactive: 1.5%
CCSc1nc2c(c(=O)[nH]1)C(c1cccnc1)C(C(=O)OC)=C(C)N2 (stereo unspecified) | inconclusive
Cc1ccc(Cn2ccc(NC(=O)c3cc(-c4ccc(Br)cc4)on3)n2)cc1 | inactive: 8%
COc1cc2[nH]c(=O)n3nc(-c4ccccc4)nc3c2cc1OC | inconclusive
CN(C)CCCOC(=O)CCc1ccccc1 | inactive: 1.3%
C=CCn1c(=O)c2ccccc2n2c(SCC(=O)Nc3cc(C)on3)nnc12 | inactive: -1%
Cc1cc(N2CCC(C)CC2)nc2ccc(N3C(=O)CCC3=O)cc12 | inconclusive
O=C(NCCCN1CCCCC1)c1ccc2c(=O)n(CCc3ccccc3)c(=O)[nH]c2c1 | inconclusive
COc1ccc(NC(=O)c2ccc3c(c2)n(C)c(=O)n3C)cc1 | inconclusive
N=c1oc2c3c4c(cc2cc1C(=O)Nc1ccccc1)CCCN4CCC3 | inconclusive

In the list so far, these contain a furan ring, fused or not.
SMILES | activation
COc1ccc2cc3cc(C(=O)NCC4COc5ccccc5O4)oc3nc2c1 (stereo unspecified) | inconclusive
COc1cc2c(cc1OC)C(C(=O)O)C(c1ccc(C)o1)N(C)C2=O (stereo unspecified) | inconclusive
CCCCn1nnc(NC(=O)c2cc3ccccc3o2)n1 | inconclusive
Cc1c(C(=O)N2CCCCC2)oc2ccc(S(=O)(=O)N3CC(C)CC(C)C3)cc12 (stereo unspecified) | inconclusive

Continuation:

SMILES | activation
COc1ccc(-c2cc3nc(C)c(CCC(=O)N4CCCCC4)c(C)n3n2)c(OC)c1 | inactive: -2%
Cc1ccccc1OCC(=O)Nc1ccc2c(c1)OCO2 | inconclusive
CCOc1cc(-c2cc(N)n[nH]2)cc(OCC)c1OCC | inconclusive
CC(=O)N1CCc2cc(Br)cc(S(=O)(=O)N3CCN(c4ccccn4)CC3)c21 | inconclusive
O=C(Nc1ccc(F)cc1F)N1CCN(c2ncccn2)CC1 | inconclusive
CC1=CC2=C(OC1N(C)C)c1cccc3cccc(c13)C2=O (stereo unspecified) | inconclusive
COc1ccc(N(C)C(=O)CCS(=O)(=O)c2cccc3nonc23)c(OC)c1 | inconclusive
Cc1cccc(CCNC(=O)c2nnc(Cc3ccc(Cl)cc3)o2)c1 | inconclusive
COc1ccc(C(=O)NCCn2ccc3ccccc32)c(OC)c1 | inactive: -3%
CCOC(=O)CNC(=O)C(NC(=O)C1CCC(C)CC1)C(C)CC (stereo unspecified) | inconclusive
Cc1cc2ccccc2c(=O)n1CC(=O)NC1CCCCCC1 | inconclusive
CCc1ccccc1S(=O)(=O)Cc1ccc(C(=O)N2CCN(c3ccccc3OC)CC2)o1 | inconclusive
COc1ccccc1N=Cc1nc(-c2ccccc2)oc1OC(C)=O | inconclusive
Cn1c(=O)[nH]c(=O)c2[nH]c(CN3CCN(C(=O)c4ccco4)CC3)nc21 | inconclusive
COc1ccc(C(=O)NC(=O)CSc2nnc(-c3ccco3)n2-c2ccccc2)cc1 | inactive: 1.3%
COc1ccc(N2C(=O)C3CCCN3C2c2cccc(C)c2)cc1Cl (stereo unspecified) | inconclusive
COc1ccccc1NC(=O)N(Cc1ccccc1)C1=NCC(C)S1 (stereo unspecified) | inconclusive
Cc1cccc(-n2c(C)nc3c(cnn3-c3ccc(F)cc3)c2=O)c1 | inconclusive
COC(=O)c1ccccc1NC(=O)Cn1cnc2ccc(S(=O)(=O)N3CCC(C)CC3)cc2c1=O | inconclusive
CN(C)CCCNC(=O)CCC1CCCCC1 | inactive: 0%
Cc1cccc(N2CCN(C(=O)C3CCN(S(=O)(=O)c4cnc[nH]4)CC3)CC2)c1C | inactive: 0%
O=C(Nc1ccc2c(c1)OCCO2)C1CCCN(S(=O)(=O)c2cccnc2)C1 (stereo unspecified) | inconclusive
c1cnc(N2CCN(c3nc4ccccc4n4cnnc34)CC2)nc1 | inconclusive
Fc1ccc(-c2nnc3ccc(N4CCc5ccccc5C4)nn23)cc1 | inconclusive
